This passage reports binding results from paper PMC2527822.

Sequences of proteins named here, by UniProt entry; tags and fusion partners are left off. A change or cut given only in a name is not applied to a line headed by its entry. A line that says so, or that is headed by a name, gives the form on record, which may keep a tag or linker.
UniProt P03372: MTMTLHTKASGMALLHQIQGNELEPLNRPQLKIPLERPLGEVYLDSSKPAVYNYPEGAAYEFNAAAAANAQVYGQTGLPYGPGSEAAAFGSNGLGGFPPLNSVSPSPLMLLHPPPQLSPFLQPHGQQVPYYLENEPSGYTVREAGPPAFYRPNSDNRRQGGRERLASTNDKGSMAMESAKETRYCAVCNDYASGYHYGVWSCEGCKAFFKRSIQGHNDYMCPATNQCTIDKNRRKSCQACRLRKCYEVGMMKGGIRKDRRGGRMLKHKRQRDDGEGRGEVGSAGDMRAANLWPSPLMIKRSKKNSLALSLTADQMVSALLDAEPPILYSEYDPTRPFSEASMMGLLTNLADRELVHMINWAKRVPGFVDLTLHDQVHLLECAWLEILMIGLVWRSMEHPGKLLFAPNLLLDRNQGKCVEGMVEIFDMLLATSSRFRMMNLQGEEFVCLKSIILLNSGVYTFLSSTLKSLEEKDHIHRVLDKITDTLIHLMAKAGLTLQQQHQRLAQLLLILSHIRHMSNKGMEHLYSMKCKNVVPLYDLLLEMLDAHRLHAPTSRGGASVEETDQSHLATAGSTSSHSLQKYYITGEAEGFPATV
endogenous MI-ER1α of MCF-7 cells (human (endogenous in MCF-7)) (Q8N108-16, form named): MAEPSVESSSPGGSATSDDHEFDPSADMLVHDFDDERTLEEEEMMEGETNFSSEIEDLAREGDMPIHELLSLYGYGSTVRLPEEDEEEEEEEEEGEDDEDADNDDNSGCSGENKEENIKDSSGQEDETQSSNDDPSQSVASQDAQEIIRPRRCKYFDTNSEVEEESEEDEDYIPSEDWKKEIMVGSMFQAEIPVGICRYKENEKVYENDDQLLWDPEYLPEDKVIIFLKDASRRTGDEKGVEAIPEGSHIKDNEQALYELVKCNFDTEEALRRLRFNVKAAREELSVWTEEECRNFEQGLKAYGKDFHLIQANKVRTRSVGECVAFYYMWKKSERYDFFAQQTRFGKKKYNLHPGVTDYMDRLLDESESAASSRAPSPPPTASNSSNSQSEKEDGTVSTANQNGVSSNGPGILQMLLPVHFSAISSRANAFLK

No constants are given. Whether binding was seen depends on the method and setting. In cells and extracts the contact can be indirect. Some results given as binding are weak or reduced against the parent protein; the word gives no strength.

The target in test [1] is oestrogen receptor-α (hERα), expressed from pcDNA3-herα (human) (UniProt P03372). The test is described as follows: co-IP; HEK293 cells co-transfected with pcDNA3-erα and pCS3+MT-mier1α; treated with vehicle or 10 nM E2 for 3 h before extraction; extracts immunoprecipitated with anti-ERα, Western blot stained for MI-ER1α. (In general: In western blotting, separated proteins are transferred to a membrane and probed.)

Test [2] addresses endogenous MI-ER1α of MCF-7 cells (human (endogenous in MCF-7)) (UniProt Q8N108). As to the kind of experiment: co-IP; non-transfected MCF-7 cells, endogenous proteins; treated with vehicle or 10 nM E2; extracts immunoprecipitated with anti-MI-ER1α (pre-immune as control), Western blot with anti-ERα.

Consider “MI-ER1α (mesoderm induction early response 1, alpha isoform), expressed from pCS3+MT-hmi-er1α (from UniProt Q8N108-16 1-433)”, for which, in test [1], the binding entry is listed as “binds”. Regarding “endogenous oestrogen receptor-α (ERα) of MCF-7 cells (from UniProt P03372 1-595)”, the binding entry in test [2] is recorded as “binds”.
